Measured values reported in patent US10562857B2 (AFASCI, Inc., priority 2015, dated 2020).
Some of these results come from one statement about several compounds together. Some compounds share one range, which may span the group rather than tell each member.

Each molecule was assayed on SNI rats (assay: Spared nerve injury (SNI) rats, von Frey monofilament test). Conditions: 30 mg/kg I.P., thermal and mechanical thresholds.
Format: in vivo, rat
Method: FIG. 3B. Mechanical pain threshold assessment (von Frey monofilament test) of SNI rats' left hindpaws. Each SNI rat received either EXAMPLE-106, -107, and -115 (each 30 mg/kg, 1 mL I.P.), or vehicle (1 mL I.P. 2% DMSO in 0.5% HPC). Sham rats also received vehicle I.P. injections. […] The sham-vehicle serves as a positive control. Thermal and mechanical pain responses were measured once every hour for 8 consecutive hours after I.P. treatment (n=8 rats per treatment group).
FIG. 4. Mechanical pain threshold assessment (von Frey monofilament test) of left hindpaws in another cohort of SNI rats. Each SNI rat received either EXAMPLE-128, -130, -132, or Z944 (as a reference compound, each 10 mg/kg, 2 mL oral gavage, P.O.). […] Mechanical pain responses were measured at pre-dosing, 1, 2, 4, and 6 hours post-treatment using von Frey monofilament test (n=8 rats per group).
In additional examples shown here, the analgesic effects were further evaluated in another rat species. Baseline thermal and mechanical thresholds of male rats (Sprague-Dawley rats, 275 g-325 g, Harlan) were taken prior to surgery; baseline thresholds were measured on the rats' left hindpaws. Thirty-two rats underwent the SNI surgery on their left hind leg; 8 rats underwent surgery without injury of the nerves as a sham group. Two weeks post-surgery, the thermal thresholds of each rat were reassessed. […] Each rat received either EXAMPLE-106, -107, -115 (each 30 mg/kg, 1 mL I.P.), or vehicle (2% DMSO in 0.5% HPC). Thermal and mechanical thresholds were measured at 1, 2, 3, 4, 5, 6, 7, and 8 hours post-treatment/dosing. […] The drug actions started around 1 hour post-injection and peaked between 2 and 3 hours, and the drug effects gradually declined to pre-treatment levels over 6-7 hours (FIGS. 3A and B).
In another cohort of SNI rats ((n=8 per group)), mechanical thresholds were measured at pre-dosing, 1, 2, 4, and 6 hours post-treatment using von Frey monofilament test.

Row | Structure (SMILES) | time for drug effects to decline to pre-treatment levels [h]
1 | O=C(CN1CCC(CNCC(=O)c2ccc[nH]2)CC1)Nc1ccccc1 [Example 106, 2-(4-(((2-Oxo-2-(1H-pyrrol-2-yl)ethyl)amino)methyl)piperidin-1-yl)-N-phenylacetamide] | 6 to 7
2 | CC1(CNC(=O)c2ccccc2)CCN(CC(=O)NC(C)(C)C)CC1 [Example 107, N-((1-(2-(tert-butylamino)-2-oxoethyl)-4-methylpiperidin-4-yl)methyl)benzamide] | 6 to 7
3 | O=C(Nc1nnc(-c2ccccc2)o1)c1ccc(Cl)s1 [Example 115, 5-Chloro-N-(5-phenyl-1,3,4-oxadiazol-2-yl)thiophene-2-carboxamide] | 6 to 7
